Key:
[1] = test system: rat molars (erupted P31, unerupted P14); experiment: ICG-assisted NIR dental imaging after subcutaneous injection in rat model; format: in vivo, Sprague Dawley rats; conditions: imaging window 4 hours
Protocol: Self-breed Sprague Dawley rats, including eight postnatal day 31 (P31) and two P21 rats for erupted molars and sixteen P14 rats for unerupted molars, were utilized. To simulate the mouthwash with living rats, 10 μL ICG solution (1 mg/ml) was pipetted into the mouth of two P31 rats in vivo, and the rats were euthanized after 2 minutes. The other two P21 went through the same in vivo mouthwash procedure and euthanized after 1 minute. In addition, the mandibles were dissected from another two P31 rats directly after euthanasia, then washed with 10 μL ICG (1 mg/ml) solution ex vivo for 10 minutes. For the subcutaneous injection, every two P31 rats were euthanized at each time points 10 minutes and 24 hours, for the ICG injection on the back (5 mg/kg body weight). For the unerupted molars, two rats were sacrificed 1 minute after in vivo mouthwash, and the same for the erupted molars. To study concentration effect on imaging, 0.1, 0.5, 1, and 5 mg/kg of ICG were injected into eight P14 rats (two rats for each dosage, and euthanized for each concentration 4 hours after injection). For P14 rats to study imaging windows, two rats were euthanized at 10 minutes, 4 hours and 48 hours for posting ICG injection (5 mg/kg) respectively.
The imaging system is depicted in FIG. 1(A). A 785 nm laser source shined to the mandibles with fiber and filters, a NIR camera received the videos, and videos were recorded by computer. The mandibles were then extracted and imaged using ICG-assisted endoscopic NIR dental imaging, as described in previous publications.^29-31 In the endoscopic imaging, an output fiber was connected to the endoscope with a camera.^30 All experiments were approved by the Institutional Animal Care and Use Committee (IACUC) of Louisiana State University (Protocol #16-117) and followed the ethical guidelines of animal care.
Meanwhile, endoscopic imaging provided clearer morphologies of the first and second molars than wide-field imaging. The lingual and occlusal cusps of the molars could be easily distinguished, especially for the mouthwash treatment (FIG. 1(B)). As described in previous work,^29, 30 the intensity-mean difference Dmean_diff (IMD) was used as the image contrast for the quantitative evaluation of the target and background. To further reveal the efficiency of the mouthwash and local injection, a sampling line (yellow lines in FIG. 1) covering both molar regions and the surrounding tissues was used to calculate the image contrast of the molar and surrounding tissues.

human extracted teeth = experiment: ICG immersion (ex vivo mouthwash) NIR fluorescence dental imaging of extracted human teeth
Protocol: (§1) Thirty-two human teeth were collected from the Louisiana State University Health Science Center (LSUHSC)—Department of Oral & Maxillofacial Surgery (Baton Rouge, USA), and the diseases were confirmed by Dr. Waleed Zaid. All the samples were fixed in a 10% neutral buffer formalin solution overnight and then washed with phosphate buffered saline (PBS) solution. Prior to the dental imaging, the teeth were immersed into 50 μM ICG solution. To compare the ex vivo mouthwash effects on human and rat teeth, extracted rat teeth from ICG-free rats were also immersed into 50 μM ICG solution. To optimize the imaging window (the time difference between ICG injection and observation), four teeth were removed from the solution and imaged at designated time points of 1 minute, 10 minutes, 30 minutes, 1 hour, 4 hours, 6 hours, 15 hours, and 24 hours using the method of the invention.
The imaging platform for the human teeth was previously described.^32 The experiments were approved by the Institutional Review Board of Louisiana State University (IRB #E11061).

extracted rat teeth = experiment: ICG immersion (ex vivo mouthwash) NIR dental imaging of extracted rat molar
Protocol: as §1
The profiles of the human tooth were able to be observed in as short as only 1 minute of ICG immersion, which is an ex vivo mouthwash delivery of dye (FIG. 5(A)-(C)). With increasing immersion time (4 and 24 hours), the profiles of the teeth became clearer than that of the 10 min-immersion. […] The molar became distinguishable after 30 min-immersion. The ICG concentration of immersion solution was 50 μM, the same as with human teeth.

CC1(C)C(/C=C/C=C/C=C/C=C2\N(CCCCS(=O)(=O)O)c3ccc4ccccc4c3C2(C)C)=[N+](CCCCS(=O)(=O)[O-])c2ccc3ccccc3c21 [ICG, indocyanine green]
peak wavelength ([1]; ICG injection 0.1 mg/kg): ~813 nm
peak wavelength ([1]; ICG injection 0.5 mg/kg): about 815 nm
peak wavelength ([1]; ICG injection 1 mg/kg): about 815 nm
peak wavelength ([1]; ICG injection 5 mg/kg): about 820 nm
peak wavelength of tooth fluorescence spectrum (human extracted teeth; human teeth, ICG immersion longer than four hours (holds)): around 833 nm
peak wavelength of tooth fluorescence spectrum (human extracted teeth; human teeth, after the first four hours of ICG immersion): 836 nm
crack detection (human extracted teeth; human teeth, first and second NIR windows, cracks not observed in micro-CT slices): both cracks were easily recognized
peak wavelength of tooth fluorescence spectrum (human extracted teeth; human teeth, start of ICG immersion): 817 nm
ICG immersion time at which profiles of the tooth were observed (human extracted teeth; human tooth, 50 μM ICG): 1 min
enamel-dentin differentiation (human extracted teeth; human tooth, 1 minutes of ICG immersion): not distinguishable
enamel-dentin differentiation (human extracted teeth; human tooth, 24 hours of ICG immersion): easily recognizable
image contrast (extracted rat teeth; extracted rat first molar, immersed 30 minutes in 50 μM ICG solution): 0.65
image contrast, amount less than that of the human teeth (extracted rat teeth; extracted rat tooth vs human teeth, 50 μM ICG immersion): 0.2
image contrast (extracted rat teeth; extracted rat tooth, different ICG immersion times, kept stable (FIG. 5(D))): around 0.6
ICG immersion time after which the molar became distinguishable (extracted rat teeth; extracted single rat first molar, 50 μM ICG): 30 min
